In US9670469B2, “UDP-glycosyltransferase derived from ginseng and use thereof” (KOREA ADVANCED INSTITUTE OF SCIENCE AND TECHNOLOGY, priority 2012, dated 2017):
At least one structure is not confirmed: it was looked up by name or label, or the drawing left a doubt.

Target: T1, PgUGT74A1 (Panax ginseng, UniProt A0A0A6ZFR4)
T1 construct: GST (N); made in house; host or cells: E. coli BL21-CodonPlus (DE3)-RIL
T1 sequence (A0A0A6ZFR4 1-451): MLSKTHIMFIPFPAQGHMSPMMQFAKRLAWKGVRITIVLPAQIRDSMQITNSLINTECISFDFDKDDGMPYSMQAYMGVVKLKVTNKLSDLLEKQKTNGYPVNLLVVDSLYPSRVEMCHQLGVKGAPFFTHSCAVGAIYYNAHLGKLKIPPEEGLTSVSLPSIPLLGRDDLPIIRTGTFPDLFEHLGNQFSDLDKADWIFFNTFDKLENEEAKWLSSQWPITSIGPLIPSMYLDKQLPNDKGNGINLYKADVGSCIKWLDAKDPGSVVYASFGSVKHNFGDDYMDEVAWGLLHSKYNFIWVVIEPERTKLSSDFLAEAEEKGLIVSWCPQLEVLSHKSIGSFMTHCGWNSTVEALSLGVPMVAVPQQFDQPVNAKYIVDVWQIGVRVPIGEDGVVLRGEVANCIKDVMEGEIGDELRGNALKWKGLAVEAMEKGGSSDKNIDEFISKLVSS
Experiment: In vitro glycosyltransferase assay with purified recombinant PgUGT74A1 and UDP-glucose
Type: biochemical
Conditions: HPLC; 30 μg enzyme, 5 mM ginsenoside, 50 mM UDP-glucose, 35° C., 12 hours
Experimental: A glycosyltransferase assay was performed in a reaction buffer (10 mM PBS buffer, pH 7) containing the purified PgUGT74A1 or PgUGT94B1 (30 μg), a ginsenoside compound (5 mM) and UDP-glucose (50 mM).
The reaction mixture was incubated at 35° C. for 12 hours, and then the products were analyzed by thin-layer chromatography (TLC) or high performance liquid chromatography (HPLC).
TLC analysis was performed using a mobile phase (acetone:methanol:DDW=65:35:10 vol/vol) and a 60F254 silica gel plate (Merck, Germany). The resolved product on the TLC plate was detected by spraying the plate with 10% (vol/vol) sulfuric acid (H2SO4) and heating it at 110° C. for 5 minutes.
HPLC analysis was performed using ODS (2) C18 column (Phenomenex, USA). […]
Ginsenosides were detected by using a UV-detector (Younglin, Korea) at a wavelength of 203 nm.
First, the recombinant PgUGT of Example 1, PgUGT74A1, was incubated with 10 different types of ginsenosides (PPD, C-K, Rh2, F2, Rg3, Rd, Rg2, Rh1, F1 and PPT) in the presence of UDP-glucose, and the products converted by the recombinant PgUGT were analyzed by TLC.

CC(C)=CCC[C@](C)(O[C@@H]1O[C@H](CO)[C@@H](O)[C@H](O)[C@H]1O)[C@H]1CC[C@]2(C)[C@@H]1[C@H](O)C[C@@H]1[C@@]3(C)CC[C@H](O)C(C)(C)[C@@H]3CC[C@]12C [C-K, Compound K]
ginsenoside into which the substrate is converted by PgUGT74A1: F2
